## Library compounds against nucleic acid targets

Calls as published in the ROBIN set (doi:10.1002/anie.202211358).

Targets, with sequences 5′ to 3′:
PreQ1: PreQ1 riboswitch RNA pseudoknot, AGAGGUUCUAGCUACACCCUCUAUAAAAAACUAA. From B. subtilis. Hit rate about 0.7% of about 24,000 compounds.
TPP: TPP riboswitch RNA three-way junction, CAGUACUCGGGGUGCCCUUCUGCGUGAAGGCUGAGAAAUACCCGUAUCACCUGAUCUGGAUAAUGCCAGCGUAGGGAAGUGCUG. Hit rate about 0.7% of about 24,000 compounds.
SAM-II: SAM-II riboswitch RNA pseudoknot, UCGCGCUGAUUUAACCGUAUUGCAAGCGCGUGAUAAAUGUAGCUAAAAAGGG. Hit rate about 1% of about 21,000 compounds.

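Compounds were printed on reactive glass slides in duplicate spots, a dye-labelled oligonucleotide was laid over them, and the fluorescence left after washing was read. The data file lists only calls. An earlier report of the laboratory on the PreQ1, TPP and SAM-II riboswitches (doi:10.1038/s41467-019-09493-3) used 1 µM RNA for 2 h and required a mean Z-score above 3 (spot signal-to-noise against the whole library), a score well above that on a control array, and duplicate spots agreeing (coefficient of variation under 100); it then also set aside compounds that hit other targets, which this list keeps. The cut-offs behind this list may differ. These are primary screening calls, not affinities; a compound without a hit may have attached poorly or may still bind in solution.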 “active” means called a hit, “inactive” means screened and not called a hit. This is an unselected part of the compounds tested. A target missing from an entry has no call listed here. A dash means that no call is listed here.

S=C1OC(c2ccccc2)=CC1=CNc1ccccc1Cl was scored PreQ1: inactive; TPP: inactive; SAM-II: inactive. With COc1ccc(-c2nc3nc(C)cc(N(CCO)CCO)n3n2)cc1 the screen gave PreQ1: inactive; TPP: inactive. For CC(C)C[C@H](NC(=O)CNC(=O)c1cc(Cl)ccc1Cl)B(O)O the calls were PreQ1: inactive; TPP: inactive; SAM-II: inactive. CC[C@H]1OC(=O)[C@H](C)[C@@H](O[C@H]2C[C@@](C)(OC)[C@@H](O)[C@H](C)O2)[C@H](C)[C@@H](O[C@@H]2O[C@H](C)C[C@H](N(C)C)[C@H]2O)[C@](C)(O)C[C@@H](C)C(=NOCOCCOC)[C@H](C)[C@@H](O)[C@]1(C)O was scored PreQ1: inactive; TPP: inactive; SAM-II: inactive.

Calls for CCOc1ccc(-c2c(C(F)(F)F)nn(C)c2N)cc1OCC are PreQ1: inactive; TPP: inactive; SAM-II: inactive. COc1ccc(CNc2ccccc2[N+](=O)[O-])cc1 was scored PreQ1: inactive; TPP: inactive; SAM-II: inactive. For COc1ccc(-c2cc(-c3sc4nc(C)c(Cl)c(C)c4c3N)on2)cc1 the calls were PreQ1: inactive; TPP: inactive; SAM-II: inactive. Calls for S=c1[nH]c2cc(-c3ccccc3)ccc2o1 are PreQ1: inactive; TPP: active; SAM-II: active.

With c1ccc(CNc2nc(NCc3ccccc3)c3ccccc3n2)cc1 the screen gave PreQ1: inactive; TPP: inactive; SAM-II: inactive. With Cc1ccc2c(c1)c1c(n2CC(O)CO)C(=O)CCC1 (stereo unspecified) the screen gave PreQ1: inactive; TPP: inactive; SAM-II: inactive. For COC(=O)c1[nH]c2sc3c(c2c1N)CCCC3 the calls were PreQ1: inactive; TPP: inactive. Calls for CC(C)(C)c1ccc(Cn2c(=N)n(CCO)c3ccccc32)cc1 are PreQ1: inactive; TPP: inactive; SAM-II: inactive.

With COC(=O)c1cccc(Nc2nc(-c3ccccc3O)nc3ccccc23)c1 the screen gave PreQ1: inactive; TPP: inactive; SAM-II: inactive. Calls for CCCCn1c(-c2ccc(N)cc2)nc2ccccc21 are PreQ1: inactive; TPP: inactive; SAM-II: inactive. Calls for O=S(=O)(c1ccc(Cl)cc1)c1nc(-c2ccc(F)cc2)oc1NCCCn1ccnc1 are PreQ1: inactive; TPP: inactive. Calls for COc1ccccc1-c1cc(C(F)(F)F)nc(NC2CCCC2)n1 are PreQ1: inactive; TPP: inactive; SAM-II: inactive.

CCOC(=O)C1=C(C)OC(N)=C(C#N)C12C(=O)N(Cc1ccc(Cl)cc1)c1ccccc12 (stereo unspecified) was scored PreQ1: inactive; TPP: inactive; SAM-II: inactive. With CC(C)c1ccc(OCC(O)Cn2c(C3CC3)nc3ccccc32)cc1 (stereo unspecified) the screen gave PreQ1: inactive; TPP: inactive. With COc1cc(CNC(C)(C)CO)cc(Br)c1OCc1ccccc1 the screen gave PreQ1: inactive; TPP: inactive; SAM-II: inactive. For Cc1nc(NC2CCCCC2)c2sc3nc4c(cc3c2n1)COC(C)(C)C4 the calls were PreQ1: inactive; TPP: inactive; SAM-II: inactive.

With CCOC(=O)c1nc(Nc2ccc(F)cc2)c2ccccc2n1 the screen gave PreQ1: inactive; TPP: inactive; SAM-II: inactive. Calls for COc1ccc(-c2cnc(NCc3c(F)cccc3Cl)n2C)cc1 are PreQ1: inactive; TPP: inactive; SAM-II: inactive. With NCCn1cc(I)cn1 the screen gave PreQ1: inactive; TPP: inactive; SAM-II: inactive. For CCOC(=O)N1CCC(NCCCC2CCOC2)CC1 (stereo unspecified) the calls were PreQ1: inactive; TPP: inactive; SAM-II: inactive.

For Cn1c(=O)n(C)c2cc(C(O)COc3ccc(CNC4CCCCCCC4)cc3)ccc21 (stereo unspecified) the calls were PreQ1: inactive; TPP: inactive. For CCCc1cc(NCCCN2CCOCC2)n2nc3nc(C)cc(C)c3c2n1 the calls were PreQ1: inactive; TPP: inactive. With Cc1ccc(Nc2nc(C)cc(N3CCN(S(=O)(=O)c4ccc(Cl)cc4)CC3)n2)cc1 the screen gave PreQ1: inactive; TPP: inactive. For COc1ccc(-c2cc(C(=O)NCCO)c(C)o2)cc1OC the calls were PreQ1: inactive; TPP: inactive; SAM-II: inactive.

For C=CCn1cc(CNCCCNS(=O)(=O)c2ccc(C)cc2)c(C)n1 the calls were PreQ1: inactive; TPP: inactive; SAM-II: inactive. With C=CCc1c(C)nc(N)nc1N1CCCC(CSC)C1 (stereo unspecified) the screen gave PreQ1: inactive; TPP: inactive; SAM-II: inactive. N#CC1=C(N)Oc2[nH]nc(-c3ccc4c(c3)OCO4)c2C1c1ccc(C(F)(F)F)cc1 (stereo unspecified) was scored PreQ1: inactive; TPP: inactive; SAM-II: inactive. Calls for CCOC(=O)C1=C(C)OC(N)=C(C#N)C12C(=O)N(Cc1ccccc1)c1ccccc12 (stereo unspecified) are PreQ1: inactive; TPP: inactive; SAM-II: inactive.

With CN1CCCN(C[C@@H]2CN(C(=O)c3cccc(N(C)C)c3)C[C@@H]2CO)CC1 the screen gave PreQ1: inactive; TPP: inactive; SAM-II: inactive. With CCCCCCCCc1nnc(N)s1 the screen gave PreQ1: inactive; TPP: inactive; SAM-II: inactive. Calls for COc1ccc(C2C=C(C)Nc3nc(N)nn32)cc1 (stereo unspecified) are PreQ1: inactive; TPP: inactive; SAM-II: inactive. COc1ccc(C(=O)c2sc3nc4c(cc3c2N)CCCC4)cc1 was scored PreQ1: inactive; TPP: inactive; SAM-II: inactive.

For O=C(C1CNCCN1C(=O)c1cccc2nccnc12)N1CCOCC1 (stereo unspecified) the calls were PreQ1: inactive; TPP: inactive; SAM-II: inactive. Calls for Cc1ccccc1C(C(=O)NC1CCCCC1)N(C(=O)Cn1ccnc1C)c1cccc(F)c1 (stereo unspecified) are PreQ1: inactive; TPP: inactive; SAM-II: inactive.

Some entries from above, unchanged:

| SMILES | PreQ1 | TPP | SAM-II |
|---|---|---|---|
| `COc1ccc(C2C=C(C)Nc3nc(N)nn32)cc1` (stereo unspecified) | inactive | inactive | inactive |
| `COc1ccc(-c2nc3nc(C)cc(N(CCO)CCO)n3n2)cc1` | inactive | inactive | - |
| `CN1CCCN(C[C@@H]2CN(C(=O)c3cccc(N(C)C)c3)C[C@@H]2CO)CC1` | inactive | inactive | inactive |